This assay deals with P388 leukemia ip, CD2F1 mice, survival T/C. In words: NCI In Vivo Anticancer Drug Screen. Data for tumor model P388 Leukemia (intraperitoneal) in CD2F1 (CDF1) mice. To be noted: T/C endpoint: median survival time, higher T/C = longer survival.
Setting [1] is: dose: 3.13 mg/kg/injection, schedule: Q01DX009 (ip), vehicle: water.
Where [2] appears, read: dose: 50.0 mg/kg/injection, schedule: Q01DX009 (ip), vehicle: Klucel (hydroxypropylcellulose) (HPC).
Setting [3] is: dose: 50.0 mg/kg/injection, schedule: Q01DX009 (ip), vehicle: saline.
[4] abbreviates: dose: 200.0 mg/kg/injection, schedule: Q01DX009 (ip), vehicle: Klucel (hydroxypropylcellulose) (HPC).
Setting [5] is: dose: 200.0 mg/kg/injection, schedule: Q01DX005 (ip), vehicle: saline with Tween-80.
Setting [6] is: dose: 100.0 mg/kg/injection, schedule: Q01DX005 (ip), vehicle: saline with Tween-80.
[7] abbreviates: dose: 100.0 mg/kg/injection, schedule: Q01DX009 (ip), vehicle: saline.
Where [8] appears, read: dose: 400.0 mg/kg/injection, schedule: Q01DX009 (ip), vehicle: saline.
[9] abbreviates: dose: 100.0 mg/kg/injection, schedule: Q01DX001 (ip), vehicle: Klucel (hydroxypropylcellulose) (HPC).
Setting [10] is: dose: 200.0 mg/kg/injection, schedule: Q01DX001 (ip), vehicle: Klucel (hydroxypropylcellulose) (HPC).

The list shows only some results of the screen, not a fair sample: it is rich in T/C values a quarter to a half above the control, in often repeated tests (any T/C) and in doses without a T/C. Other doses and runs of a compound stand elsewhere. T/C gives the treated animals as a percentage of the vehicle group. Some doses have a count of surviving animals in place of a T/C: the source holds a T/C of zero for them, seemingly a mark for toxic or unscored doses. Some doses without a T/C left all or most animals alive at the check, yet need not have been tolerated: the source hardly ever lists a survival T/C far under the control, and the zero likely stands for such cases as well. Survivors were counted at the toxicity check, usually on the fifth day, unless a day is given; later deaths do not show. Schedules are NCI's codes, read here as Q, the interval in days (D) or hours (H), X, the number of doses. Some structures stand for samples that the source files as different forms (salt, stereo form or complex); doses refer to the form tested. Where survival is the endpoint, this PubChem deposit counts one and a half times the control or more as active, and values a quarter to a half above the control carry no call in these data; other NCI protocols may use other cut-offs. Some entries hold several experiments; the values are given in rising order. Marks such as (2×) say how often a value occurs here.

Turning to `Cc1cnc(/C=N\NC(N)=S)c2cccc(N)c12`, the T/C runs as follows: (dose: 3.13 mg/kg/injection, schedule: Q01DX009 (ip), vehicle: Klucel (hydroxypropylcellulose) (HPC)) 136 % of control (2×); (dose: 3.13 mg/kg/injection, schedule: Q01DX009 (ip), vehicle: other) 139 % of control; (dose: 3.13 mg/kg/injection, schedule: Q01DX009 (ip), vehicle: saline) 144 % of control; under setting [1], 146 % of control; (dose: 6.25 mg/kg/injection, schedule: Q01DX009 (ip), vehicle: Klucel (hydroxypropylcellulose) (HPC)) 143 and 145 % of control; (dose: 6.25 mg/kg/injection, schedule: Q01DX009 (ip), vehicle: other) 144 % of control. Besides, the T/C was 136 % of control (dose: 6.25 mg/kg/injection, schedule: Q01DX009 (ip), vehicle: saline with Tween-80); 134 % of control (dose: 6.25 mg/kg/injection, schedule: Q01DX009 (ip), vehicle: saline); 128 % of control (dose: 7.2 mg/kg/injection, schedule: Q01DX005 (ip), vehicle: clinical formulation). Besides, the survivor count under setting [2] is 6 of 6; the survivor count (dose: 50.0 mg/kg/injection, schedule: Q01DX009 (ip), vehicle: other) was 0 of 6; the survivor count under setting [3] is on record as 6 of 6; the survivor count (dose: 50.0 mg/kg/injection, schedule: Q01DX009 (ip), vehicle: water) is given as 5 of 6.
As for `Cc1nn(-c2ccccc2)c2c1C(c1ccc(Cl)cc1)C(C#N)=C(N)O2` (centres undefined), under setting [4], the survivor count is reported as 5 of 6.
Regarding `CC(C)C(=O)OC1(C(C)c2ccccc2)C(=O)NC(=O)NC1=O` (centres undefined), the survivor count is listed as 0 of 6 (dose: 30.0 mg/kg/injection, schedule: Q01DX005 (ip), vehicle: Klucel (hydroxypropylcellulose) (HPC)); 0 of 6 (dose: 60.0 mg/kg/injection, schedule: Q01DX005 (ip), vehicle: Klucel (hydroxypropylcellulose) (HPC)); 0 of 6 (dose: 120.0 mg/kg/injection, schedule: Q01DX005 (ip), vehicle: Klucel (hydroxypropylcellulose) (HPC)); 0 of 6 (dose: 240.0 mg/kg/injection, schedule: Q01DX005 (ip), vehicle: Klucel (hydroxypropylcellulose) (HPC)).
Regarding `CC=C=CCN(C)Cc1ccccc1`, for the setting “dose: 200.0 mg/kg/injection, schedule: Q04DX003 (ip), vehicle: Klucel (hydroxypropylcellulose) (HPC)”, the survivor count is given as 0 of 6.
Regarding `Cc1cc(C)c(-c2cc(C(O)C3OC4OC(C)(C)OC4C3O)on2)c(C)c1` (centres undefined), the survivor count under setting [5] is 6 of 6.
For the molecule `COc1cccc2c1C(=O)c1c(O)c3c(c(O)c1C2=O)C[C@@](O)(C(=O)CO)C[C@@H]3OC1CC(NC(C)=O)C(O)C(C)O1` (some centres undefined), the T/C reads like this: under setting [1], 136 % of control; (dose: 6.25 mg/kg/injection, schedule: Q01DX009 (ip), vehicle: water) 129 and 142 % of control; (dose: 12.5 mg/kg/injection, schedule: Q01DX009 (ip), vehicle: water) 140 % of control; (dose: 25.0 mg/kg/injection, schedule: Q01DX009 (ip), vehicle: water) 144 % of control. Also, the survivor count (dose: 400.0 mg/kg/injection, schedule: Q01DX009 (ip), vehicle: other) is 6 of 6.
Regarding `S=c1nc[nH]c2ccc3[nH]ncc3c12`, the survivor count reads like this: (dose: 50.0 mg/kg/injection, schedule: Q01DX005 (ip), vehicle: saline with Tween-80) 6 of 6; under setting [6], 5 of 6; under setting [5], 6 of 6.
As to `COc1cccc(Oc2ccc(C)c[n+]2CC(C)=O)c1`, under setting [6], the survivor count is 1 of 5.
For the molecule `[Cl][Eu]([Cl])[Cl]`, the survivor count is, setting by setting: under setting [7], 6 of 6; (dose: 200.0 mg/kg/injection, schedule: Q01DX009 (ip), vehicle: saline) 6 of 6; under setting [8], 1 of 6.
Take `CC(=O)C1C(=O)C=C(C)OC1=O.CC(=O)C1C(=O)C=C(C)OC1=O.[Hg]` (centres undefined): the survivor count is 0 of 6 (dose: 12.5 mg/kg/injection, schedule: Q01DX009 (ip), vehicle: Klucel (hydroxypropylcellulose) (HPC)) and 0 of 6 (dose: 25.0 mg/kg/injection, schedule: Q01DX009 (ip), vehicle: Klucel (hydroxypropylcellulose) (HPC)).
Regarding `COc1ccc(C2CC(=O)C(C(=O)OC3CCCCC3)C2c2ccc(OC)cc2)cc1` (centres undefined), the survivor count is, setting by setting: under setting [9], 6 of 6; under setting [10], 6 of 6; (dose: 400.0 mg/kg/injection, schedule: Q01DX001 (ip), vehicle: Klucel (hydroxypropylcellulose) (HPC)) 6 of 6.
In the case of `OCC1(CO)COC2(CCCCC2)N1`, the T/C under setting [8] was 147 % of control.
On to `OC1(c2ccccc2)C(c2ccccc2)=C(c2ccccc2)C(c2ccc(CCc3ccc(C4=C(c5ccccc5)C(O)(c5ccccc5)C(c5ccccc5)=C4c4ccccc4)cc3)cc2)=C1c1ccccc1` (centres undefined), for which the survivor count is listed as 6 of 6 under setting [9] and 6 of 6 under setting [10].
As to `CCCCCCCCCCCCC1=C(O)C(=O)C=C(O)C1=O`, the survivor count (dose: 100.0 mg/kg/injection, schedule: Q01DX005 (ip), vehicle: saline) is 0 of 6; the survivor count (dose: 100.0 mg/kg/injection, schedule: Q01DX005 (ip), vehicle: suspension in saline) is 0 of 6; the survivor count (dose: 200.0 mg/kg/injection, schedule: Q01DX005 (ip), vehicle: saline) was 0 of 6.
With `COc1cc2cc(c1Cl)N(C)C(=O)CC(OC(=O)C(C)N(C)C(=O)C(C)C)C1(C)OC1C(C)C1CC(O)(NC(=O)O1)C(OC)/C=C/C=C(C)C2O` (centres undefined), the T/C is 126 % of control (dose: 4.0 micrograms/kg/injection, schedule: Q01DX009 (ip), vehicle: distilled water + alcohol); 134 % of control (dose: 8.0 micrograms/kg/injection, schedule: Q01DX009 (ip), vehicle: distilled water + alcohol); 144 % of control (dose: 16.0 micrograms/kg/injection, schedule: Q01DX009 (ip), vehicle: distilled water + alcohol).
As for `Nc1ncnc(Nc2ccc(C(F)(F)F)cc2)n1`, the survivor count is on record as 6 of 6 under setting [2] and 5 of 6 under setting [4].
For the molecule `Clc1c2ccccc2cc2cccnc12`, the survivor count reads like this: under setting [3], 5 of 6; under setting [7], 6 of 6.
Turning to `COc1ccc(C(O)(CCN2CCOCC2)c2ccc3c(c2)OCO3)cc1` (centres undefined), the survivor count (dose: 200.0 mg/kg/injection, schedule: Q01DX005 (ip), vehicle: Klucel (hydroxypropylcellulose) (HPC)) was 6 of 6.
As to `CC1CCC(OC(=O)N(CCCl)N=O)CC1` (centres undefined), the T/C (dose: 50.0 mg/kg/injection, schedule: Q01DX001 (ip), vehicle: saline with Tween-80) is 126 and 127 % of control.
With `CN(C)CCNC(c1ccccc1)C(O)c1ccccc1` (centres undefined), under setting [4], the survivor count was 5 of 6.
Regarding `CCOC(=O)c1c(N)[nH]c(SSc2[nH]c(N)c(C(=O)OCC)c2C(=O)OCC)c1C(=O)OCC`, the T/C (dose: 150.0 mg/kg/injection, schedule: Q01DX009 (ip), vehicle: saline) is 132 % of control.
As to `COC(=O)C[CH2][Sn]([Cl])([Cl])[Cl]`, the survivor count reads like this: (dose: 200.0 mg/kg/injection, schedule: Q04DX003 (ip), vehicle: saline) 6 of 6; (dose: 400.0 mg/kg/injection, schedule: Q04DX003 (ip), vehicle: saline) 0 of 6.
Regarding `C/C=c1/[nH]c(=O)/c(=C\C=C\c2ccccc2)[nH]c1=O`, the survivor count by setting is: under setting [4], 6 of 6; (dose: 400.0 mg/kg/injection, schedule: Q01DX009 (ip), vehicle: Klucel (hydroxypropylcellulose) (HPC)) 5 of 6.
With `O=c1[nH]c(=O)c2nc(-c3ccc4c(c3)OCO4)cnc2[nH]1`, the survivor count (dose: 400.0 mg/kg/injection, schedule: Q04DX003 (ip), vehicle: lactic acid) is 6 of 6.

Values taken from PubChem BioAssay AID330 (DTP/NCI, 2004).
